Reference: PMC11425893
No constants are given. Whether binding was seen depends on the method and setting. In cells and extracts the contact can be indirect. Some results given as binding are weak or reduced against the parent protein; the word gives no strength.

Chains of the proteins cited; added tags and fusions are not shown.
UniProt P09528: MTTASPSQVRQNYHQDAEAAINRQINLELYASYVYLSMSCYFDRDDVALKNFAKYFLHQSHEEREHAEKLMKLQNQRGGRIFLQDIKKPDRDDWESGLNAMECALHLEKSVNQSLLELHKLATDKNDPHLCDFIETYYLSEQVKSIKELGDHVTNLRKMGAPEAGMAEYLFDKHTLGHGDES

Molecular target: ferritin heavy chain 1 (FTH1), mouse heart (mouse (endogenous in heart tissue)) (UniProt P09528)
Assay: co-IP; heart tissue of control mice and mice treated with DOX with or without PrA; n = 3 per group

B1: NCOA4, mouse heart (protein, UniProt Q5U4H9 1-625)
chain: MNTSLEQSGCYSNRETLLRCSDARRELELAIGGVLRAEQQIKDNLREVKAQIHSCISRHLECLRSREVWLNEQVDLIYQLKEETLQQQAQQLYWLMGQFNCLIHQLEYTQNKDLANQVSVCLERLGSLALKPEDSTVLLFEADTSALRQTITTFGSLKTIQIPEHLMAHASSSSIGPFLEKRGYIQVPEQKSASSGTAVSLSEWLLVSKPAIGLQAPYVPSTNPQDWLIPKQTSENSQTSARACSFFSDAWGNLKGLENWLLNSHQQEIAGKPSSSKCNSHCSTSSFSPEAEKAEDVELLDQDELDLSDWLVTPQEPCELEKPVDGSWETSEKFKLLFQVFREPYNVSDWLVKPDSCTNCQGNQPRGVEIENLGNLKCLNDHLEAKKSVSVPGATISDGWLAQNHQDTWKVEEVCKANEPCTSFAECVCDDNCEKEAMYKWLLKKGGKDKNGMPMEPKSEPEKHRESLTLWLCPSRNELTEQAKAPKAMAPARIADSFHVIKNSSLSEWLMGPTCKGGPKDVPNTEERAGKEMLQSSMATSWCPFNTADWVLPGKKVGSLSQFPSGEDKWLLRKKAQEAFLNSPLQEERNFRPDCYGLPAVCDLFACMQLKVDKEKWLYRTPLQM
  binding: binds
